Data reported in the supplement of paper PMC10849652.
Some of the results follow.

Amino acid sequences for entries named in this document (tags omitted). A change or cut given only in a name is not applied to a line headed by its entry.
UniProt P41252: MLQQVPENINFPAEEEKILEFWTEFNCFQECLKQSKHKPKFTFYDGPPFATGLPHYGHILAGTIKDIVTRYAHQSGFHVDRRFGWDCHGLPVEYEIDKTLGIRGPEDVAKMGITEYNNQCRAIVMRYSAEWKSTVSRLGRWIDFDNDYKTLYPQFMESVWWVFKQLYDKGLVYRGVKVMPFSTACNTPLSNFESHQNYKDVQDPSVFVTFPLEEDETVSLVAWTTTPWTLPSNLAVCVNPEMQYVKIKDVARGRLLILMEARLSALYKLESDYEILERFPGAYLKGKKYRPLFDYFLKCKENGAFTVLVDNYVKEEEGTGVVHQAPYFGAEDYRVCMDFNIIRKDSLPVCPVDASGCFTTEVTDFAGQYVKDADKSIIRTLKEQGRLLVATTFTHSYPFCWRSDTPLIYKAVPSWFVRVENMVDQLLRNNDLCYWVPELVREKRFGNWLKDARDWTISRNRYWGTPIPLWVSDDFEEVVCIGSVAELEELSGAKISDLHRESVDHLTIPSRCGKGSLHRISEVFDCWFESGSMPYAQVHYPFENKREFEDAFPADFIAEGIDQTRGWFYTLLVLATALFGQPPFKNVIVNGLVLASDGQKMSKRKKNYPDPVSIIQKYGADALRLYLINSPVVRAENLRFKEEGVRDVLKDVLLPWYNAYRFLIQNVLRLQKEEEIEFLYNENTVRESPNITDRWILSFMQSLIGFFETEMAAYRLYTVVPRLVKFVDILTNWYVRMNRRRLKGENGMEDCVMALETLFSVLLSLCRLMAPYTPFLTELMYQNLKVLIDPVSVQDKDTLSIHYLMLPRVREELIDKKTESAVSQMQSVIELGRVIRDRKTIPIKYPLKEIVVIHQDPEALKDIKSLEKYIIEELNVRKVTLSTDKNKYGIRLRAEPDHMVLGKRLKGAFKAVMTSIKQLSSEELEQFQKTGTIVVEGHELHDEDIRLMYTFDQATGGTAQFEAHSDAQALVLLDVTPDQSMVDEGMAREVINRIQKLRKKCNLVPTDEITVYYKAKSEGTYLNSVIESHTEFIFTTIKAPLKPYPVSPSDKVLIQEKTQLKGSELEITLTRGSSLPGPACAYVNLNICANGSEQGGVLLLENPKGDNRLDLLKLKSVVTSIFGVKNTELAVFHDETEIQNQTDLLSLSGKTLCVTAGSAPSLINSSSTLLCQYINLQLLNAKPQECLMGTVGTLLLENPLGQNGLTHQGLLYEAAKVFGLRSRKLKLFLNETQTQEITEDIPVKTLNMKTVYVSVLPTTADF
UniProt Q13123, whole entry, looked up: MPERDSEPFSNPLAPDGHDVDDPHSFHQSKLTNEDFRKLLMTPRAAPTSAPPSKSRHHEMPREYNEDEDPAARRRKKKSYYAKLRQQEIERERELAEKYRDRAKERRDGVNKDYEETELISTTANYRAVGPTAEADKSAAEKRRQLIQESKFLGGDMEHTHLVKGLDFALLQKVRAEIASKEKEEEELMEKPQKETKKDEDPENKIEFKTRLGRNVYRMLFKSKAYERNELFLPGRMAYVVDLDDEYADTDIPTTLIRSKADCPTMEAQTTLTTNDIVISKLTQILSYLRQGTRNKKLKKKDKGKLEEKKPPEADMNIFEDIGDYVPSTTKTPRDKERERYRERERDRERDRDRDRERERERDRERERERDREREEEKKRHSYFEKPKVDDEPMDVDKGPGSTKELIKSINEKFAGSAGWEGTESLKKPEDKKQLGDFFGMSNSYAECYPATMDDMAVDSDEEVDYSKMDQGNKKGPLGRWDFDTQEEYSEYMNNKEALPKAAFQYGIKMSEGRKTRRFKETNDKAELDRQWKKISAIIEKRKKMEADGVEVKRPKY
UniProt Q96LU5: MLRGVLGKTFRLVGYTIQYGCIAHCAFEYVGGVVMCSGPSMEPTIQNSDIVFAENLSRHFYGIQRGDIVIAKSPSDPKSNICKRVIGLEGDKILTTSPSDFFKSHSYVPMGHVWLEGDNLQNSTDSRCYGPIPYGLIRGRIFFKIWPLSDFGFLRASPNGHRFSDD
UniProt P04792, whole entry, looked up: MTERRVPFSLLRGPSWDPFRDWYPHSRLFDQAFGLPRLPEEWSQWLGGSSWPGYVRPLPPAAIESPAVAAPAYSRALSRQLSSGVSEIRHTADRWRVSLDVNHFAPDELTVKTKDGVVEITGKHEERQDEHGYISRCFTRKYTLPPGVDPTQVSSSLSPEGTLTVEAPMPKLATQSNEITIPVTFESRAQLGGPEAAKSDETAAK
UniProt O75874, whole entry, looked up: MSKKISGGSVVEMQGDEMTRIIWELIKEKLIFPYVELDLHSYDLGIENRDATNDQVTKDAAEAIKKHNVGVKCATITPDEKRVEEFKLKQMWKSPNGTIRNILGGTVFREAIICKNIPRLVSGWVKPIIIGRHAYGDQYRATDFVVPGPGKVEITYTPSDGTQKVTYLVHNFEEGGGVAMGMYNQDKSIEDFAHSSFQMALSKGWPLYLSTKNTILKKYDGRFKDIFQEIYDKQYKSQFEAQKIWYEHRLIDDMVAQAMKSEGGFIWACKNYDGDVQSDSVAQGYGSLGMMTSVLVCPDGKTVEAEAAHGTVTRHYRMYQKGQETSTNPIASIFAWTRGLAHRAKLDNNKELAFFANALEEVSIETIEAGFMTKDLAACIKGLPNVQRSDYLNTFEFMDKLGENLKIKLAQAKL
UniProt Q12906, whole entry, looked up: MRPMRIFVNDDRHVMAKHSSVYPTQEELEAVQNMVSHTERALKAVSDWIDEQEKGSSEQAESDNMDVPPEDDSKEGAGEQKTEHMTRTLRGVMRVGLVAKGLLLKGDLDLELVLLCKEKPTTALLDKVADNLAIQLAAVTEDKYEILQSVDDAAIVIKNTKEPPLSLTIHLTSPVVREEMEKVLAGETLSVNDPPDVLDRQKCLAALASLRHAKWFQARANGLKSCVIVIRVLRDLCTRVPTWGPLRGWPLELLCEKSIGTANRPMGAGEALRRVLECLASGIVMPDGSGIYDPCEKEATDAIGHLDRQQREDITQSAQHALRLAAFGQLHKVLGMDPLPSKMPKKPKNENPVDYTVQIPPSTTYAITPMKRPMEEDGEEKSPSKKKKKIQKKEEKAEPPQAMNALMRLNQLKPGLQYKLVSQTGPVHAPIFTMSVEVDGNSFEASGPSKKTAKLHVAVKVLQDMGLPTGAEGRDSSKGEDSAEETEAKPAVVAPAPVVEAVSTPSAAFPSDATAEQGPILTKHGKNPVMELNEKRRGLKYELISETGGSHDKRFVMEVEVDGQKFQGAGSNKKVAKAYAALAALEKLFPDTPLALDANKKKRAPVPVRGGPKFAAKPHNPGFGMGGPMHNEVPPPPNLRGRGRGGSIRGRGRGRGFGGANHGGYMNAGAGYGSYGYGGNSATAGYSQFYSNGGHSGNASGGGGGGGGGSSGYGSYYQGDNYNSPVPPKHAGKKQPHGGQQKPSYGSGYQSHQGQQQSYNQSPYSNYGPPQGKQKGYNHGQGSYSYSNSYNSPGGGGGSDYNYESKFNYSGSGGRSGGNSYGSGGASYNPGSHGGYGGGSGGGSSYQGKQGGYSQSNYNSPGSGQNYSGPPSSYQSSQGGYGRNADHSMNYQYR
UniProt Q9NX62: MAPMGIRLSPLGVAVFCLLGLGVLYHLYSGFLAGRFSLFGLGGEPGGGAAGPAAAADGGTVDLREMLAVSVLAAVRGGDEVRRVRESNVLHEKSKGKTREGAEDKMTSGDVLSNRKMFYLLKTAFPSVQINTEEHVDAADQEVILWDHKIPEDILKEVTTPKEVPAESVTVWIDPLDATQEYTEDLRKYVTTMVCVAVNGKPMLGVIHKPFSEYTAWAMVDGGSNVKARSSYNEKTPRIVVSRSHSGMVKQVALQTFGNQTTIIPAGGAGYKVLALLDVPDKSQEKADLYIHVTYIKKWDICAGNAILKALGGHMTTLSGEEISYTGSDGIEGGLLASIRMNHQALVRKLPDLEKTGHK
UniProt O75054: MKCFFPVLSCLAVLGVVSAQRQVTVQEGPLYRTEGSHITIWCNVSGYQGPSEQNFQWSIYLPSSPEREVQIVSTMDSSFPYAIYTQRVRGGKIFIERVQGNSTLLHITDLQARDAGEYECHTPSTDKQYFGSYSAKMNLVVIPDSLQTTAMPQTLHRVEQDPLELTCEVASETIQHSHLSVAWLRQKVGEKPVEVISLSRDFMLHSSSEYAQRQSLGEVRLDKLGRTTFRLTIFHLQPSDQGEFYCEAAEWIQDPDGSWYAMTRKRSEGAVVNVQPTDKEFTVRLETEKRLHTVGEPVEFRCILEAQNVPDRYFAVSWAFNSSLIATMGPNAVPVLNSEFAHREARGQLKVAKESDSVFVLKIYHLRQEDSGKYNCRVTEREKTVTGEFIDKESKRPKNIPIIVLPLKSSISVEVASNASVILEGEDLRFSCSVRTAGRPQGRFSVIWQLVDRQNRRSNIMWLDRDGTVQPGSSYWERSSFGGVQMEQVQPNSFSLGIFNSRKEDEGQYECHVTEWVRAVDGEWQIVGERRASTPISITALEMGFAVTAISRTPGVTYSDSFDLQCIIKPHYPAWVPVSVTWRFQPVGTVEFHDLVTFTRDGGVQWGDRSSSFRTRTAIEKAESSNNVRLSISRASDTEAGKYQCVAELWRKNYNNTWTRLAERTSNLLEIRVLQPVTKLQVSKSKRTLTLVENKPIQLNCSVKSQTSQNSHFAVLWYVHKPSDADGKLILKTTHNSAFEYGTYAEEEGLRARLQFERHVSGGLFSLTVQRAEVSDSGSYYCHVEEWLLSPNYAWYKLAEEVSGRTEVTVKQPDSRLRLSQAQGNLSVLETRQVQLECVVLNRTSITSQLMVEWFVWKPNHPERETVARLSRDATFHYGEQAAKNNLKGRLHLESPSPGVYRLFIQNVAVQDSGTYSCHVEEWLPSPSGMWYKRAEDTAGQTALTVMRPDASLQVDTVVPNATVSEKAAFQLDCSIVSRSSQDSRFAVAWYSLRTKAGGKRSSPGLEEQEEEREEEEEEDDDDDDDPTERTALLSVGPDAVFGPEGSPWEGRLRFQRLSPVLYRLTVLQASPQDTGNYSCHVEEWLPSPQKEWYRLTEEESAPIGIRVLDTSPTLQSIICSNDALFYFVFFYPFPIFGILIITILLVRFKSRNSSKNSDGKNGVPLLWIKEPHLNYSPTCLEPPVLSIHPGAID
UniProt Q01628, whole entry, looked up: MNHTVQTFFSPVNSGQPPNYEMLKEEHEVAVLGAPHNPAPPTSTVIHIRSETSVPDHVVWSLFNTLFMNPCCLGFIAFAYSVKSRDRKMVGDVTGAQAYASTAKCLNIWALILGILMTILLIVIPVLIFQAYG
UniProt Q27J81, whole entry, looked up: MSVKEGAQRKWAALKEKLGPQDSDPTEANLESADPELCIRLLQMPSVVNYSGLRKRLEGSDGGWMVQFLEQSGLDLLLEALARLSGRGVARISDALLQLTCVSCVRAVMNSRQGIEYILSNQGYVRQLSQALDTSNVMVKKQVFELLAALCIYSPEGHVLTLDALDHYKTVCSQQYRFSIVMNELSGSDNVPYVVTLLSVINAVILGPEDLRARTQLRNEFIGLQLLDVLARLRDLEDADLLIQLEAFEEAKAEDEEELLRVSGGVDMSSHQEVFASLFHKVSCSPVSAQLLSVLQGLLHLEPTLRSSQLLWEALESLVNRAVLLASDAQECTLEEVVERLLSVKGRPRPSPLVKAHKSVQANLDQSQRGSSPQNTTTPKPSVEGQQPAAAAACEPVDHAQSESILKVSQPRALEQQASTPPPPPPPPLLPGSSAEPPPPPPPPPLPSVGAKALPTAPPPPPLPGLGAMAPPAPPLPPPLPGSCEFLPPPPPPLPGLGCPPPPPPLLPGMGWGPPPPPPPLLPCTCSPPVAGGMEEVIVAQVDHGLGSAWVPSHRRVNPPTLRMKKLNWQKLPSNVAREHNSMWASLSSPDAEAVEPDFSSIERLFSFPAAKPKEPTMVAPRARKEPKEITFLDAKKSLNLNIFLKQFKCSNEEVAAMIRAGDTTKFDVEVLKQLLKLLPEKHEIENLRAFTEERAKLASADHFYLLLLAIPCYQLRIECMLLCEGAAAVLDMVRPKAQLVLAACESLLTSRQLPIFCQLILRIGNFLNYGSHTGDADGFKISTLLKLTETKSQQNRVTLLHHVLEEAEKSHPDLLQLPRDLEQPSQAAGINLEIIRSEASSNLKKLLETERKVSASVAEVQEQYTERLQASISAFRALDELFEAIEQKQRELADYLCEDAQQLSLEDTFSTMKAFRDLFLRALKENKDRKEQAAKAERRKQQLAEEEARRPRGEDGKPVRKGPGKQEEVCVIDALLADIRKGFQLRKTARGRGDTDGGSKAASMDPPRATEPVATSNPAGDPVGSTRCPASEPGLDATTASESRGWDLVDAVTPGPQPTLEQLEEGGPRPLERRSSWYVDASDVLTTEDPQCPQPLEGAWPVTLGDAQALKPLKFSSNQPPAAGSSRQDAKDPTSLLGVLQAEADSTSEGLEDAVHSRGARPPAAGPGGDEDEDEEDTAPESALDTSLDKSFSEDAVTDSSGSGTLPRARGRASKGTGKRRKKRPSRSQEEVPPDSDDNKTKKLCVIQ
UniProt Q8IY31, whole entry, looked up: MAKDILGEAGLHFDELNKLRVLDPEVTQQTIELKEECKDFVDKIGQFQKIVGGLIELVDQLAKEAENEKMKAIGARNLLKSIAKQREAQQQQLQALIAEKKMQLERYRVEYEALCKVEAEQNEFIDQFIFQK

What was measured:
Experiment in all cases: log2 fold change, soluble protein after heating vs DMSO (PISA); higher = thermal stabilisation; K562 lysate, 10 uM; active = over 0.2 and 3.5 SD of the protein, either way, in both replicates (recomputed)
lapatinib = compound: CS(=O)(=O)CCNCc1ccc(-c2ccc3ncnc(Nc4ccc(OCc5cccc(F)c5)c(Cl)c4)c3c2)o1 [lapatinib]
Method in brief: (§1)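 Following dounce homogenisation of K562 pellets in PBS pH 7.4 with 1 mM MgCl2, crude extract at 1 mg/mL protein was incubated for 30 min with 10 μM compound. Aliquots were then heated for 3 min over 48°C-58°C and pooled, NP-40 was added to 0.5% at 4°C, and soluble protein was recovered as the supernatant at 21,000xg for 90 min. Channel-sum-equalised TMTpro 16plex LC-MS/MS quantified this protein. Each value, from duplicates, is a log-two fold change in thermal stability relative to solvent controls.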

pictilisib = compound: CS(=O)(=O)N1CCN(Cc2cc3nc(-c4cccc5[nH]ncc45)nc(N4CCOCC4)c3s2)CC1 [pictilisib]
Method in brief: as §1

crizotinib = compound: C[C@@H](Oc1cc(-c2cnn(C3CCNCC3)c2)cnc1N)c1c(Cl)ccc(F)c1Cl [crizotinib]
Method in brief: as §1

[1] = compound: C[C@H](C1=CC=C(C=C1)C(=O)NC2=C3C=CNC3=NC=C2)N
Method in brief: as §1

duvelisib = compound: C[C@H](Nc1ncnc2nc[nH]c12)c1cc2cccc(Cl)c2c(=O)n1-c1ccccc1 [duvelisib]
Method in brief: as §1

gandotinib = compound: Cc1cc(Nc2cc(CN3CCOCC3)c3nc(C)c(Cc4ccc(Cl)cc4F)n3n2)n[nH]1 [gandotinib]
Method in brief: as §1

tozasertib = compound: Cc1cc(Nc2cc(N3CCN(C)CC3)nc(Sc3ccc(NC(=O)C4CC4)cc3)n2)n[nH]1 [tozasertib]
Method in brief: as §1

doramapimod = compound: Cc1ccc(-n2nc(C(C)(C)C)cc2NC(=O)Nc2ccc(OCCN3CCOCC3)c3ccccc23)cc1 [doramapimod]
Method in brief: as §1

bafetinib = compound: Cc1ccc(NC(=O)c2ccc(CN3CC[C@H](N(C)C)C3)c(C(F)(F)F)c2)cc1Nc1nccc(-c2cncnc2)n1 [bafetinib]
Method in brief: as §1

[2] = compound: Cc1cccc(CC(=O)N2CCc3c2ccc(-c2cn(C)c4ncnc(N)c24)c3F)n1
Method in brief: as §1

Measured: log2 fold change

IGSF8 (UniProt Q969P0)
inactive: lapatinib -0.04 | pictilisib -0.05 | crizotinib -0.145 | [1] -0.113 | duvelisib -0.094 | gandotinib 0.022 | tozasertib 0.015 | doramapimod 0 | bafetinib -0.027 | [2] 0.119

IL17RA (UniProt Q96F46)
inactive: lapatinib 0.074 | pictilisib 0.032 | crizotinib 0.144 | [1] -0.046 | duvelisib 0.002 | gandotinib -0.06 | tozasertib 0.01 | doramapimod -0.159 | bafetinib -0.165 | [2] -0.074

HUS1 (UniProt O60921)
inactive: lapatinib -0.016 | pictilisib -0.04 | crizotinib -0.015 | [1] -0.028 | duvelisib 0.011 | gandotinib 0.007 | tozasertib -0.029 | doramapimod 0.065 | bafetinib -0.032 | [2] -0.007

IARS (UniProt P41252)
inactive: lapatinib -0.032 | pictilisib -0.006 | crizotinib -0.045 | [1] 0.059 | duvelisib -0.001 | gandotinib -0.13 | tozasertib 0.013 | doramapimod 0.016 | bafetinib -0.015 | [2] -0.041

ING3 (UniProt Q9NXR8)
inactive: lapatinib -0.061 | pictilisib -0.024 | crizotinib -0.032 | [1] 0.003 | duvelisib 0.09 | gandotinib -0.037 | tozasertib 0.022 | doramapimod -0.029 | bafetinib -0.091 | [2] -0.014

IK (UniProt Q13123)
inactive: lapatinib -0.038 | pictilisib 0.008 | crizotinib -0.005 | [1] -0.03 | duvelisib -0.05 | gandotinib 0.016 | tozasertib 0.041 | doramapimod -0.006 | bafetinib -0.026 | [2] 0.011

2 consecutive records from above:
ING3 (UniProt Q9NXR8)
inactive: lapatinib -0.061 | pictilisib -0.024 | crizotinib -0.032 | [1] 0.003 | duvelisib 0.09 | gandotinib -0.037 | tozasertib 0.022 | doramapimod -0.029 | bafetinib -0.091 | [2] -0.014

IK (UniProt Q13123)
inactive: lapatinib -0.038 | pictilisib 0.008 | crizotinib -0.005 | [1] -0.03 | duvelisib -0.05 | gandotinib 0.016 | tozasertib 0.041 | doramapimod -0.006 | bafetinib -0.026 | [2] 0.011

Continuation:

HUWE1 (UniProt Q7Z6Z7)
inactive: lapatinib -0.015 | pictilisib -0.025 | crizotinib -0.001 | [1] -0.013 | duvelisib 0.009 | gandotinib 0.005 | tozasertib -0.006 | doramapimod 0.004 | bafetinib -0.028 | [2] 0.005

IMMP1L (UniProt Q96LU5)
inactive: lapatinib -0.034 | pictilisib -0.028 | crizotinib -0.041 | [1] 0.059 | duvelisib -0.041 | gandotinib -0.081 | tozasertib 0.229 | doramapimod 0.019 | bafetinib -0.055 | [2] -0.072

INPP4A (UniProt Q96PE3)
inactive: lapatinib -0.028 | pictilisib -0.116 | crizotinib -0.024 | [1] -0.086 | duvelisib 0.025 | gandotinib 0.003 | tozasertib 0.065 | doramapimod 0.014 | bafetinib 0.132 | [2] 0.128

IBTK (UniProt Q9P2D0)
inactive: lapatinib -0.029 | pictilisib 0.022 | crizotinib 0.013 | [1] 0.09 | duvelisib -0.011 | gandotinib -0.089 | tozasertib 0.013 | doramapimod 0.052 | bafetinib 0.015 | [2] -0.123

HSPB1 (UniProt P04792)
inactive: lapatinib -0.017 | pictilisib -0.013 | crizotinib 0.036 | [1] 0.008 | duvelisib 0.014 | gandotinib -0.018 | tozasertib -0.017 | bafetinib -0.031 | [2] -0.021
active: doramapimod -0.31

ICAM5 (UniProt Q9UMF0)
inactive: lapatinib -0.035 | pictilisib -0.06 | crizotinib 0.06 | [1] -0.201 | duvelisib 0.114 | gandotinib 0.228 | tozasertib -0.038 | doramapimod 0.023 | bafetinib 0.029 | [2] 0.296

IGBP1 (UniProt P78318)
inactive: lapatinib 0.012 | pictilisib -0.013 | crizotinib 0.013 | [1] -0.144 | duvelisib 0.018 | gandotinib 0.021 | tozasertib -0.018 | doramapimod -0.006 | bafetinib 0.024 | [2] 0.014

IDH1 (UniProt O75874)
inactive: lapatinib -0.018 | pictilisib -0.004 | crizotinib -0.044 | [1] -0.021 | duvelisib -0.004 | gandotinib -0.042 | tozasertib 0.015 | doramapimod -0.002 | bafetinib -0.04 | [2] 0.029

ILF3 (UniProt Q12906)
inactive: lapatinib 0.02 | pictilisib -0.012 | crizotinib 0.006 | [1] -0.092 | duvelisib 0.101 | gandotinib 0.013 | tozasertib -0.244 | doramapimod 0.003 | bafetinib -0.016 | [2] -0.285

IMPAD1 (UniProt Q9NX62)
inactive: lapatinib -0.036 | pictilisib 0.02 | crizotinib -0.005 | [1] -0.023 | duvelisib 0 | gandotinib 0.027 | tozasertib -0.007 | doramapimod -0.003 | bafetinib -0.02 | [2] -0.026

IMMP2L (UniProt Q96T52)
inactive: lapatinib 0.017 | pictilisib -0.098 | crizotinib -0.01 | [1] -0.052 | duvelisib -0.036 | gandotinib 0.003 | tozasertib -0.052 | doramapimod -0.027 | bafetinib -0.041 | [2] 0.081

HSPA8 (UniProt E9PK54)
inactive: lapatinib -0.067 | pictilisib -0.013 | crizotinib 0.051 | [1] -0.025 | duvelisib 0.004 | gandotinib 0.058 | tozasertib 0.067 | doramapimod 0.011 | bafetinib 0.026 | [2] 0.046

IGSF3 (UniProt O75054)
inactive: lapatinib 0.017 | pictilisib -0.027 | crizotinib 0.02 | [1] -0.031 | duvelisib 0.001 | gandotinib 0.049 | tozasertib -0.039 | doramapimod -0.018 | bafetinib 0.114 | [2] 0.041

IMPDH2 (UniProt H0Y4R1)
inactive: lapatinib 0.074 | pictilisib -0.133 | crizotinib 0.19 | [1] -0.056 | duvelisib 0.011 | gandotinib 0.16 | tozasertib -0.028 | doramapimod 0.028 | bafetinib 0.022 | [2] 0.065

IGF2BP2 (UniProt Q9Y6M1)
inactive: lapatinib -0.034 | pictilisib -0.015 | crizotinib 0.012 | [1] -0.031 | duvelisib 0 | gandotinib 0.009 | tozasertib -0.011 | doramapimod 0.021 | bafetinib -0.093 | [2] 0.048

IFITM3 (UniProt Q01628)
inactive: lapatinib -0.123 | pictilisib -0.067 | crizotinib -0.089 | [1] -0.103 | duvelisib -0.005 | gandotinib 0.035 | tozasertib -0.153 | doramapimod -0.034 | bafetinib 0.09 | [2] -0.022

INPP1 (UniProt P49441)
inactive: lapatinib -0.01 | pictilisib -0.044 | crizotinib -0.012 | [1] -0.013 | duvelisib 0.009 | gandotinib -0.123 | tozasertib 0.054 | doramapimod -0.011 | bafetinib -0.011 | [2] -0.025

INF2 (UniProt Q27J81)
inactive: lapatinib 0.024 | pictilisib -0.019 | crizotinib -0.043 | [1] 0.002 | duvelisib -0.051 | gandotinib -0.001 | tozasertib 0.04 | doramapimod 0.049 | bafetinib -0.068 | [2] 0.128

ILF2 (UniProt Q12905)
inactive: lapatinib -0.02 | pictilisib -0.008 | crizotinib 0.001 | [1] 0.041 | duvelisib 0.013 | gandotinib -0.014 | tozasertib -0.008 | doramapimod -0.021 | bafetinib -0.008 | [2] -0.028

IFT20 isoform 2 (UniProt Q8IY31)
inactive: lapatinib -0.013 | pictilisib 0.116 | crizotinib 0.04 | [1] 0.032 | duvelisib -0.016 | gandotinib -0.1 | tozasertib -0.01 | doramapimod -0.029 | bafetinib 0.022 | [2] 0.003

IFNGR1 (UniProt P15260)
inactive: lapatinib -0.076 | pictilisib 0.153 | crizotinib -0.008 | [1] -0.497 | duvelisib 0.196 | gandotinib 0.263 | tozasertib -0.001 | doramapimod -0.034 | bafetinib -0.144 | [2] 0.378

IDI1 (UniProt Q13907)
inactive: lapatinib 0.042 | pictilisib -0.029 | crizotinib 0 | [1] -0.149 | duvelisib 0.036 | gandotinib 0.059 | tozasertib -0.003 | doramapimod 0.081 | bafetinib -0.016 | [2] 0

IARS2 (UniProt Q9NSE4)
inactive: lapatinib -0.023 | pictilisib -0.013 | crizotinib -0.01 | [1] 0.19 | duvelisib -0.007 | gandotinib -0.057 | tozasertib 0.02 | doramapimod 0.011 | bafetinib -0.002 | [2] -0.049

HSPG2 (UniProt P98160)
inactive: lapatinib -0.003 | pictilisib -0.031 | crizotinib 0.011 | [1] -0.189 | duvelisib 0.01 | gandotinib 0.122 | tozasertib -0.024 | doramapimod 0.006 | bafetinib 0.045 | [2] 0.062
